# Where a name gives a salt, the structure may show the parent alone. The list shows a part of the results. Most values lie within the scatter of the assay; repeated measurements hardly agree.
# System: Brugia pahangi adult female
# Test: motility inhibition on day 3 relative to DMSO vehicle; higher = more active
# Conditions: 10 µM; 3 days
row,Compound,motility inhibition on day 3 [%]
1,Cc1nnc(NS(=O)(=O)c2ccc(N)cc2)s1 [sulfamethizole],22
2,CC1CC(OC(=O)C(O)c2ccccc2)CC(C)(C)N1C (centres undefined) [eucatropine hydrochloride],54.4
3,C1CCN2C[C@@H]3C[C@@H](CN4CCCC[C@@H]34)[C@H]2C1 [sparteine sulfate],5.16
4,CC1Cc2ccccc2N1NC(=O)c1ccc(Cl)c(S(N)(=O)=O)c1 (centres undefined) [indapamide],31.2
5,FC(F)(Cl)C(F)(F)Cl [cryoflurane],< 0
6,CCC(=O)c1c(O)cc(O)cc1O [flopropione],5.41
7,CO/N=C(\C(=O)N[C@@H]1C(=O)N2C(C(=O)O)=C(COC(N)=O)CS[C@H]12)c1ccco1 [cefuroxime sodium],< 0
8,O=C(NCC(O)CO)c1c(I)c(C(=O)NCC(O)CO)c(I)c(N(CCO)C(=O)CO)c1I (centres undefined) [ioversol],49.6
9,Nc1ccc(S(=O)(=O)Nc2ccnn2-c2ccccc2)cc1 [Sulfaphenazole],< 0
10,CC12CCC(CC1)C(C)(C)O2 [eucalyptol],17.1
11,CC(=O)Nc1ncc([N+](=O)[O-])s1 [nithiamide],13.6
12,CCCCCCCCCCCCCCCC(=O)O[C@@H]1[C@@H](O)[C@@H](O)[C@@H]([C@H](NC(=O)[C@@H]2C[C@@H](CCC)CN2C)[C@H](C)Cl)O[C@@H]1SC [clindamycin palmitate hydrochloride],4.01
13,Cc1cc(CC(=O)O)n(C)c1C(=O)c1ccc(Cl)cc1 [zomepirac sodium],7.27
14,Nc1ccc2cc3ccc(N)cc3nc2c1 [proflavine hemisulfate],88.8
15,CC(C)C[C@@H]1NC(=O)[C@H](CCCN)NC(=O)[C@H](C(C)C)NC(=O)[C@H](Cc2ccc(O)cc2)N[C@@H](CCC(=O)O)C(=O)N[C@@H](CC(N)=O)C(=O)[C@@H](Cc2ccccc2)NC(=O)[C@H](Cc2ccccc2)NC(=O)[C@@H]2CCCN2C(=O)[C@@H](Cc2ccccc2)NC1=O [tyrothricin],41.9
16,CC[C@H]1OC(=O)[C@H](C)[C@@H](O[C@H]2C[C@@](C)(OC)[C@@H](O)[C@H](C)O2)[C@H](C)[C@@H](O[C@@H]2O[C@H](C)C[C@H](N(C)C)[C@H]2O)[C@](C)(O)C[C@@H](C)[C@@H]2N[C@@H](COCCOC)O[C@H]([C@H]2C)[C@]1(C)O [dirithromycin],6.81
17,O=C1CC2(CCCC2)CC(=O)N1CCCCN1CCN(c2ncccn2)CC1 [Buspirone hydrochloride],< 0
18,O=c1cc[nH]c(=S)[nH]1 [2-thiouracil],< 0
19,CC(=O)OC1CC2CCC1(C)C2(C)C (centres undefined) [bornyl acetate],< 0
20,CC(=O)O[C@]1(C(C)=O)CC[C@H]2[C@@H]3C[C@H](C)C4=CC(=O)CC[C@]4(C)[C@H]3CC[C@@]21C [medroxyprogesterone acetate],19.4
21,O=C(O)c1cc(-c2ccccc2)nc2ccccc12 [cinchophen],< 0
22,CC(C)NCC(O)c1ccc2ccccc2c1 (centres undefined) [pronetalol hydrochloride],15.8
23,CN(C)c1nc(N(C)C)nc(N(C)C)n1 [altretamine],8.02
24,COc1ccccc1OCC(O)CN1CCN(CC(=O)Nc2c(C)cccc2C)CC1 (centres undefined) [ranolazine],4.05
25,CCCNCC(O)COc1ccccc1C(=O)CCc1ccccc1 (centres undefined) [propafenone hydrochloride],< 0

row,Compound,motility inhibition on day 3 [%]
1,NC(=O)C(c1ccccc1)(c1ccccc1)[C@@H]1CCN(CCc2ccc3c(c2)CCO3)C1 [darifenacin hydrobromide],9.69
2,C[C@H]1C[C@@H]2[C@H]([C@@H](O)C[C@@]3(C)[C@H]2CC[C@]3(O)C(=O)CO)[C@@]2(C)C=CC(=O)C=C12 [methylprednisolone],14.8
3,COc1ccc(C2CNC(=O)C2)cc1OC1CCCC1 (centres undefined) [Rolipram],4.69
4,CCCCC(F)(F)[C@@]1(O)CC[C@H]2[C@@H](CC(=O)[C@@H]2CCCCCCC(=O)O)O1 [Lubiprostone],1.45
5,NC(=O)c1ccc([N+](=O)[O-])cc1Cl [aklomide],16
6,CC(C)[C@H](N)C(=O)OCC(CO)OCn1cnc2c(=O)nc(N)[nH]c21 (some centres undefined) [valganciclovir hydrochloride],8.89
7,O=C1OCCN1/N=C/c1ccc([N+](=O)[O-])o1 [furazolidone],27.6
8,c1ccc([C@H]2CN3CCSC3=N2)cc1 [levamisole hydrochloride],65.8
9,CCC(=O)O[C@]1(C(=O)CCl)[C@@H](C)C[C@H]2[C@@H]3CCC4=CC(=O)C=C[C@]4(C)[C@@]3(F)[C@@H](O)C[C@@]21C [clobetasol propionate],0.554
10,Cc1c(O)c(=O)ccn1C [deferiprone],< 0
11,CC(=O)OCC(CCn1cnc2cnc(N)nc21)COC(C)=O [famciclovir],< 0
12,NNc1nncc2ccccc12 [hydralazine hydrochloride],< 0
13,NCC(O)CC(=O)O (centres undefined) [aminohydroxybutyric acid],1.23
14,C[C@H](CCC(=O)O)[C@H]1CC[C@H]2[C@@H]3[C@H](O)C[C@@H]4C[C@H](O)CC[C@]4(C)[C@H]3CC[C@]12C [chenodiol],18.2
15,Nc1cc(C(Cl)=C(Cl)Cl)c(S(N)(=O)=O)cc1S(N)(=O)=O [clorsulon],17.3
16,COc1c2occc2c(OC)c2c(=O)cc(C)oc12 [khellin],< 0
17,C1CNCCN1 [piperazine],< 0
18,CC(=O)[C@]1(O)Cc2c(O)c3c(c(O)c2[C@@H](O[C@H]2C[C@H](N)[C@H](O)[C@H](C)O2)C1)C(=O)c1ccccc1C3=O,7.73
19,O=c1oc2ccccc2c(O)c1Cc1c(O)c2ccccc2oc1=O [dicumarol],9.46
20,CN1CCN(CCCN2c3ccccc3Sc3ccc(Cl)cc32)CC1 [Prochlorperazine dimaleate],< 0
21,CCN(CC)CCc1nc(-c2ccccc2)no1 [oxolamine citrate],15.9
22,O=S(=O)(O)NC1CCCCC1 [cyclamic acid],< 0
23,CCc1cn([C@H]2C[C@H](O)[C@@H](CO)O2)c(=O)[nH]c1=O [edoxudine],< 0
24,CC(C)NC[C@@H](O)COc1cccc2ccccc12 [dexpropranolol hydrochloride],23.6
25,CC(NCCC(c1ccccc1)c1ccccc1)c1ccccc1 (centres undefined) [fendiline hydrochloride],< 0

# Looked up one by one from above, 2 records:
row,Compound,motility inhibition on day 3 [%]
2,C[C@H]1C[C@@H]2[C@H]([C@@H](O)C[C@@]3(C)[C@H]2CC[C@]3(O)C(=O)CO)[C@@]2(C)C=CC(=O)C=C12 [methylprednisolone],14.8
8,c1ccc([C@H]2CN3CCSC3=N2)cc1 [levamisole hydrochloride],65.8

# Next records:

row,Compound,motility inhibition on day 3 [%]
1,Cc1c(N(C)CS(=O)(=O)O)c(=O)n(-c2ccccc2)n1C [dipyrone],< 0
2,CN(C)[C@@H]1C(O)=C(C(=O)NCN2CCCC2)C(=O)[C@@]2(O)C(O)=C3C(=O)c4c(O)cccc4[C@@](C)(O)[C@H]3C[C@@H]12 [rolitetracycline],13.9
3,CC(C)/N=c1\cc2n(-c3ccc(Cl)cc3)c3ccccc3nc-2cc1Nc1ccc(Cl)cc1 [clofazimine],51
4,O=C1Cc2cc(CCN3CCN(c4nsc5ccccc45)CC3)c(Cl)cc2N1 [ziprasidone mesylate],5.74
5,CCN[C@H]1C[C@H](C)S(=O)(=O)c2sc(S(N)(=O)=O)cc21 [Dorzolamide??HCl],12.8
6,CC(=O)N(O)CCCCCNC(=O)CCC(=O)N(O)CCCCCNC(=O)CCC(=O)N(O)CCCCCN [deferoxamine mesylate],56.4
7,CC(C)(C(=O)c1cccnc1)c1cccnc1 [metyrapone],22.7
8,CN1CC(=O)NC1=N [creatinine],2.67
9,C[C@]12CC[C@@H]3c4ccc(O)cc4CC[C@H]3[C@@H]1CC[C@@H]2OC(=O)CCC1CCCC1 [estradiol cypionate],0.0736
10,CCC(NC(C)C)C(O)c1ccc(O)c(O)c1 (centres undefined) [isoetharine mesylate],4.46
11,CCC(Cc1c(I)cc(I)c(N)c1I)C(=O)O (centres undefined) [iopanic acid],9.88
12,CN1CCc2cccc3c2[C@H]1Cc1ccc(O)c(O)c1-3 [apomorphine hydrochloride],53.3
13,CN1CCc2cccc3c2[C@H]1Cc1ccc(O)c(O)c1-3 [R(-)-Apomorphine hydrochloride],1.77
14,CCOC(=O)C(C)(C)Oc1ccc(Cl)cc1 [Clofibrate],16.8
15,CO[C@@]1(NC(=O)CSCC#N)C(=O)N2C(C(=O)O)=C(CSc3nnnn3C)CS[C@@H]21 [cefmetazole sodium],9.32
16,C[C@@H]1[C@H](O)[C@@H](C)/C=C/C=C/C=C/C=C/C=C/C=C/C=C/[C@H](O[C@@H]2O[C@H](C)[C@@H](O)[C@H](N)[C@@H]2O)C[C@@H]2O[C@](O)(C[C@@H](O)C[C@@H](O)[C@H](O)CC[C@@H](O)C[C@@H](O)CC(=O)O[C@H]1C)C[C@H](O)[C@H]2C(=O)O [amphotericin b],34.5
17,Nc1ncnc(Nc2ccc(Cl)cc2)n1 [chlorazanil hydrochloride],37.4
18,CCCCCCCCCCCCCCCC(=O)NCCO [palmidrol],4.69
19,CN1CCN(C2=Nc3cc(Cl)ccc3Nc3ccccc32)CC1 [Clozapine],1.19
20,NC12CC3CC(CC(C3)C1)C2 [Amantadine hydrochloride],6.41
21,CO[C@H]1O[C@@H]2O[C@@]3(C)CC[C@H]4[C@H](C)CC[C@@H]([C@H]1C)[C@@]24OO3 [artemether],19.2
22,Cc1cc(=O)n(-c2ccccc2)n1C [antipyrine],2.22
23,Clc1ccc(COC(Cn2ccnc2)c2ccc(Cl)cc2Cl)c(Cl)c1 (centres undefined) [miconazole nitrate],95.5
24,CC1CCc2c(N3CCC(O)CC3)c(F)cc3c(=O)c(C(=O)O)cn1c23 (centres undefined) [nadifloxacin],< 0

# As entered above.
# Clc1ccc(COC(Cn2ccnc2)c2ccc(Cl)cc2Cl)c(Cl)c1 (centres undefined) [miconazole nitrate] | motility inhibition on day 3 [%]: 95.5
# CC(C)/N=c1\cc2n(-c3ccc(Cl)cc3)c3ccccc3nc-2cc1Nc1ccc(Cl)cc1 [clofazimine] | motility inhibition on day 3 [%]: 51
